This note sets out measurements from PMC10167234.

Protein sequences, listed by entry. Tags and fused reporters are not part of them. Lines headed by an entry give the natural chain unless they say otherwise; changes in a name come on top.
UniProt Q92922: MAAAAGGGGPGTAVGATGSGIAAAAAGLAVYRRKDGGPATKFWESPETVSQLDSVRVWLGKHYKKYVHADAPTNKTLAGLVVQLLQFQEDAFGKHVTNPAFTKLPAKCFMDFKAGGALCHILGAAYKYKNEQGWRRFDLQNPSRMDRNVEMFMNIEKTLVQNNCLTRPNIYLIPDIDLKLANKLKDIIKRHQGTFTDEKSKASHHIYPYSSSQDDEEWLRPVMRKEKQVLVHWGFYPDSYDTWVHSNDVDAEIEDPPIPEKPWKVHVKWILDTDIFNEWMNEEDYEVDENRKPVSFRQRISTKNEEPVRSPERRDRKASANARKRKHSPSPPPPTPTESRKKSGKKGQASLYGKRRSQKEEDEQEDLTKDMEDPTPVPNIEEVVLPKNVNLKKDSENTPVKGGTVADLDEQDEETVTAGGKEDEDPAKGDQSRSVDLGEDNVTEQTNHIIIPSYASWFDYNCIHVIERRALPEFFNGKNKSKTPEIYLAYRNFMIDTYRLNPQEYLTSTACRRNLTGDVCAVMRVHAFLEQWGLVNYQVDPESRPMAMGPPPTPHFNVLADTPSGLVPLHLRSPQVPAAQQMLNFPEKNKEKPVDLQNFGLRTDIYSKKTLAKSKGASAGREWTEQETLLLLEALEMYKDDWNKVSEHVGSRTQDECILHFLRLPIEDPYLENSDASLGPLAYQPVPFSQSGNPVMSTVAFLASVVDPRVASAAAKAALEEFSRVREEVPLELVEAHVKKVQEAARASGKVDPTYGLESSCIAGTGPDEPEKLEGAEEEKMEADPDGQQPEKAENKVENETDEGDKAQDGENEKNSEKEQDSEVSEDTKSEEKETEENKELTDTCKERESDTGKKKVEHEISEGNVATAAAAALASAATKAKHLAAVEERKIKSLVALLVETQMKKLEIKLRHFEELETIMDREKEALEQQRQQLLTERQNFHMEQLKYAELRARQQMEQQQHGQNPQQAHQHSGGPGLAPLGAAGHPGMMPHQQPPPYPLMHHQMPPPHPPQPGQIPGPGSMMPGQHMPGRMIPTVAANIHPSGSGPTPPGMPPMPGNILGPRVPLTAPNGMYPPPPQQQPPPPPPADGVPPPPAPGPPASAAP
UniProt P97496: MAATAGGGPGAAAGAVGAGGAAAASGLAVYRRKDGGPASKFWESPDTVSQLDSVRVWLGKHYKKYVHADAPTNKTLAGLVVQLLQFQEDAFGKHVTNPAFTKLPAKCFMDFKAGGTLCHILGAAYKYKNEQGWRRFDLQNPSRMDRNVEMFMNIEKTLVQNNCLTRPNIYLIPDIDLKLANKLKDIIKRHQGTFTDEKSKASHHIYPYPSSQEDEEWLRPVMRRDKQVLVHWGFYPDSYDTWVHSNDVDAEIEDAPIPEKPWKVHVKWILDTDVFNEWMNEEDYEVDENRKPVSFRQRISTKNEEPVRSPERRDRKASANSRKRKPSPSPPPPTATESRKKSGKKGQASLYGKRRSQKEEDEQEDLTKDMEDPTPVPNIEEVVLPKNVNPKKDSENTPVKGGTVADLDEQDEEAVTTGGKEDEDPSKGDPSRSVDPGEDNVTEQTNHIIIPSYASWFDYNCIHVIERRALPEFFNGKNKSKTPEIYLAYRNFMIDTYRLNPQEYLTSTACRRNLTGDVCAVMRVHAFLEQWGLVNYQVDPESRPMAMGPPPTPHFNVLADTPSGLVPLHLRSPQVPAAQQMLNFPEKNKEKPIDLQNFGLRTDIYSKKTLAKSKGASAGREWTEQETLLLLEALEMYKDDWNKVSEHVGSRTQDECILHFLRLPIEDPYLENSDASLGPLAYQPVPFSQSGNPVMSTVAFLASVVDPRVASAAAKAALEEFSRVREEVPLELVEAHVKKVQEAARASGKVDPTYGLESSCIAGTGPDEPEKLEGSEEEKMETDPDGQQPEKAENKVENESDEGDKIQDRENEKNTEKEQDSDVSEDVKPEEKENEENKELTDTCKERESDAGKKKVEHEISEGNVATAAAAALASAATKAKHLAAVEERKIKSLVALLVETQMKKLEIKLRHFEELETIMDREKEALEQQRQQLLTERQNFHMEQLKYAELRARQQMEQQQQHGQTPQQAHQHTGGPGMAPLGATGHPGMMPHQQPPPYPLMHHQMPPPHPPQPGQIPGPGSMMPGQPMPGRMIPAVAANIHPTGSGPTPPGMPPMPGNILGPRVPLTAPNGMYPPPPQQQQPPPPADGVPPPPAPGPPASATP
UniProt Q9DBH0: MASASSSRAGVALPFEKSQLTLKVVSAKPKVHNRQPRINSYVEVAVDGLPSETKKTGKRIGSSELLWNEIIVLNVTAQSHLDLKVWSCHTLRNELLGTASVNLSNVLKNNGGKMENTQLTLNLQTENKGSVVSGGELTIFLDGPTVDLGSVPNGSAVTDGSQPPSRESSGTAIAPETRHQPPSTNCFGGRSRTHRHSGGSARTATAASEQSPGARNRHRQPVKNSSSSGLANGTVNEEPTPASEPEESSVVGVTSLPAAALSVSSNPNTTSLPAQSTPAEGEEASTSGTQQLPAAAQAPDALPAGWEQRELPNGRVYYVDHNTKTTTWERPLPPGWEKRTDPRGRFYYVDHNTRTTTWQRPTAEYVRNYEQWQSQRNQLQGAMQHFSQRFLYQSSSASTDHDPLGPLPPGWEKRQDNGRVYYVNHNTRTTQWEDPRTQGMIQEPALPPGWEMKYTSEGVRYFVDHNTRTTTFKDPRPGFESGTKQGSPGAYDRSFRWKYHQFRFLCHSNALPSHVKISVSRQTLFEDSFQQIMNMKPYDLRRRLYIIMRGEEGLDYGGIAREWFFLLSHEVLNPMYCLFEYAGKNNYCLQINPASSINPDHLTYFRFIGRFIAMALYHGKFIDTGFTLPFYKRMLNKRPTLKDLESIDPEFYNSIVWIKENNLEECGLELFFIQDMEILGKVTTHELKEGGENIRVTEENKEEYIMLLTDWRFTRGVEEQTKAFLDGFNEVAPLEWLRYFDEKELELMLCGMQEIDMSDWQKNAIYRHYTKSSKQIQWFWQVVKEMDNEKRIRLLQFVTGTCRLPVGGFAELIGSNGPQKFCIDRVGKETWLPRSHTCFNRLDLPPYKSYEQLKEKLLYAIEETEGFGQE
UniProt O00308: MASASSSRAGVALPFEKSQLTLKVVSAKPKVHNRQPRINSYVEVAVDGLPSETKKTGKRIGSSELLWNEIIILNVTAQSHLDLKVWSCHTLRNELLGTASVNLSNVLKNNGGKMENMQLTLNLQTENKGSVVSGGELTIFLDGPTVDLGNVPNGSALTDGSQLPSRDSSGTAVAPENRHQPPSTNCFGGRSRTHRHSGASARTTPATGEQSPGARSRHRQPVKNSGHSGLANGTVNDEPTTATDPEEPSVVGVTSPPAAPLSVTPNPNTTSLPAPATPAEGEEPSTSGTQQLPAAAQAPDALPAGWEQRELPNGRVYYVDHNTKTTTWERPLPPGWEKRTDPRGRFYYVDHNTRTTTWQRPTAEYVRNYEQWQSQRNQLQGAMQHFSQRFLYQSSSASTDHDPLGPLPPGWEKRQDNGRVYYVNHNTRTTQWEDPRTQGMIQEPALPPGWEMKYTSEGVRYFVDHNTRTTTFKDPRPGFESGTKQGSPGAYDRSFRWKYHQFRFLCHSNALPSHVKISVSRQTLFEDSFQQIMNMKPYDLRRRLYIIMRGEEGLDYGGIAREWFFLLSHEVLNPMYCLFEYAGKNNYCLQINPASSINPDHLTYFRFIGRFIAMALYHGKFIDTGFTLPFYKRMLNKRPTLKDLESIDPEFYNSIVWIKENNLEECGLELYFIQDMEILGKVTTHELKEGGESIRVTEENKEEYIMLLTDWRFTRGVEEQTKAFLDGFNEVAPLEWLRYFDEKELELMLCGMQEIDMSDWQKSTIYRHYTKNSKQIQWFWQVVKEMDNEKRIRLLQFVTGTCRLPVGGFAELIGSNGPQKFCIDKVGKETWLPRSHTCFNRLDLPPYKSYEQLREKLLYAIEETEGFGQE
UniProt P09874: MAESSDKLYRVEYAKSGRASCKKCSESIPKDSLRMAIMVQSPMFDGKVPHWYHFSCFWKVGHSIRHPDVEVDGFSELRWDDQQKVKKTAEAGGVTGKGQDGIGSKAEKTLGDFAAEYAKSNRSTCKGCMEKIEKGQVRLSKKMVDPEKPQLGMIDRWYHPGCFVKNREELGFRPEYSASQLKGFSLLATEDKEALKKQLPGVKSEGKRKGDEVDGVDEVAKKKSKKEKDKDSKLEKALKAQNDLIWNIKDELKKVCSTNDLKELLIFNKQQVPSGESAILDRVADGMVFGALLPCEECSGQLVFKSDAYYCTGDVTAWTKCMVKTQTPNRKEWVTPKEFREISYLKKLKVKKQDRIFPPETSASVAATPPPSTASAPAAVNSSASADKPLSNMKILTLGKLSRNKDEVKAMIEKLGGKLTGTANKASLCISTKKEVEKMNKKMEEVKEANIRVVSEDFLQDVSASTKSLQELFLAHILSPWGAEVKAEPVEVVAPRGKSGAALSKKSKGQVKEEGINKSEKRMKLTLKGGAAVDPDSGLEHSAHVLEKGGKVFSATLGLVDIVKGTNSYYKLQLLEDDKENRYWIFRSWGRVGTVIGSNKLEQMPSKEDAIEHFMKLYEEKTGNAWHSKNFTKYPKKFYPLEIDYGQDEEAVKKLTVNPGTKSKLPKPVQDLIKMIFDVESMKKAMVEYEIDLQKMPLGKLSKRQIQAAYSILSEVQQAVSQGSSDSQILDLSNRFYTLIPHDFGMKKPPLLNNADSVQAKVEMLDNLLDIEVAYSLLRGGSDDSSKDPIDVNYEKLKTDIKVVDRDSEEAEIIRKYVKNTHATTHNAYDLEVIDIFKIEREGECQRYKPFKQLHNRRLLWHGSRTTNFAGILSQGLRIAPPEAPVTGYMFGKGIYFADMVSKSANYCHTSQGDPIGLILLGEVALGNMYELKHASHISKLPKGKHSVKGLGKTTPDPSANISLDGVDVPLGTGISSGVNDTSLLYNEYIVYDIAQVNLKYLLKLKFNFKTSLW
UniProt P11103: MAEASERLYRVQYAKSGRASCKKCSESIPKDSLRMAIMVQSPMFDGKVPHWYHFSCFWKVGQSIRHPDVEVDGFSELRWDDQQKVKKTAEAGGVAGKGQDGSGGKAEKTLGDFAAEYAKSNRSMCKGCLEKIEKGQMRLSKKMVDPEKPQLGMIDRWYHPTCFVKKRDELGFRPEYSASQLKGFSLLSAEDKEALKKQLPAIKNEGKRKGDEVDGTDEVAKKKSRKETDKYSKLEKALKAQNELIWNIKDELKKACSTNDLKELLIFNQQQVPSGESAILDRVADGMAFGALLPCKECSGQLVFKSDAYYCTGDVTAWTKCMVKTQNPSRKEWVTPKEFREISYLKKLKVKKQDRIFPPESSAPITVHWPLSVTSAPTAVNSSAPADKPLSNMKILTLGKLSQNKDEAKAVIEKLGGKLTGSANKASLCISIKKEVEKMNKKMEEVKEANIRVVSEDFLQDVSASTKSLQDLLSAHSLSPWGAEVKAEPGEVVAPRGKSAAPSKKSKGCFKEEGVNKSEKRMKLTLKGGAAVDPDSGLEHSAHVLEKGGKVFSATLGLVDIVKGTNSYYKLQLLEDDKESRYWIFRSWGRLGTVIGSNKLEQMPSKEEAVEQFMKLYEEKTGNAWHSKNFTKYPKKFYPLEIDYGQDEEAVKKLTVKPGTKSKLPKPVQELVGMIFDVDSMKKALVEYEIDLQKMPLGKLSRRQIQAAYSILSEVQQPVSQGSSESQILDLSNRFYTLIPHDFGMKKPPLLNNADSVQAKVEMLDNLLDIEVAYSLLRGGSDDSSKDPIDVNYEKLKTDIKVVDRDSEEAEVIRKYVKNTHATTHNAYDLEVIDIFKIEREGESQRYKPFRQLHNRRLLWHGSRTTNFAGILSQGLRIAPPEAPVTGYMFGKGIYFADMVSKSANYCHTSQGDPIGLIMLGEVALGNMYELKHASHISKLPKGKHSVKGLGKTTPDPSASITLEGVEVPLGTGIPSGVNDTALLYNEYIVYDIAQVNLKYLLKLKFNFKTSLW

Experiment [1] concerns the target BAF155 (UniProt Q92922). As to the kind of experiment: co-IP; co-IP using a series of truncation variants of PARP1.
The target of experiment [2] is BAF155 (mouse heart) (mouse (endogenous in mouse hearts)) (UniProt P97496). As to the kind of experiment: co-IP; co-IP from cardiac tissues of mice with saline or Ang II treatment (BAF155-cWT/cKO, BAF155-WT/TG, WWP2-cWT/cKO).
In experiment [3] the target is WWP2 (mouse heart) (mouse (endogenous in mouse hearts)) (UniProt Q9DBH0). The experiment is described as above.
For experiment [4], the target named is BAF155 (UniProt Q92922). As to the kind of experiment: co-IP; co-IP from cells (cells not named in the main text); treatments: Ang II, MG132, BAF155 knockdown, BAF155 overexpression.
For experiment [5], the target named is WWP2 (UniProt O00308). The description is as above.

These are yes or no findings as the source states them, for the method shown. Binding seen in cells or lysates may run through a third protein. Some binding calls cover weakened binding; strength is not graded here.

As to “PARP1 amino acids 476-779 (PARP-A-helical domain) (from UniProt P09874 476-779) (domain or fragment)”, in experiment [1], the binding result is on record as “binds”.
On the same count and under the same terms, to “PARP1 amino acids 1-203 (Zinc finger domains 1/2) (from UniProt P09874 1-203) (domain or fragment)” belongs “binds”.
“PARP1 (mouse heart) (from UniProt P11103 1-1013)”: the binding entry in experiment [2] and in experiment [3] was “binds” in each case.
Consider “Poly(ADP-ribose) polymerase 1 (PARP1) (from UniProt P09874 1-1014)”, for which the binding result in experiment [4] and in experiment [5] was “binds” in each case.
Regarding BAF155 (from UniProt Q92922 1-1105), the binding result in experiment [5] is “binds”.
